Earlier results, collected in paper PMC12181400, “Leveraging viral genome sequences and machine learning models for identification of potentially selective antiviral agents” (Communications Chemistry, 2025).

Tested on: cell viability (tox21-ar-mda-kb2-luc-antagonist-p2)
Conditions: cited from earlier work

Question: Which “tox21-ar-mda-kb2-luc-antagonist-p2-viability (curve rank)” value does the source give for `NS(=O)(=O)c1cc(C(=O)O)c(NCc2ccco2)cc1Cl` [Furosemide] here?
Answer: The value was 0.
